Results from patent US7678797B2, “1-phenyl-3-piperazine-pyrazoles and pesticidal compositions of matter thereof” (Merial Limited, priority 2004, dated 2010).
Some entries share one result that the patent states for a list of compounds.

Tests used:
[1] = test system: Ctenocephalides felis (Cat flea); assay: Method A: screening method to test systemicity of compounds against Ctenocephalides felis (artificial dog test, treated bovine blood); type: in vivo; conditions: test concentration of 5 ppm or less in bovine blood; 10 adults; assessment at 24 and 48 hours after application
[2] = test system: Rhipicephalus sanguineus (Brown Dog Tick); assay: Method B: screening method to test contact activity against Rhipicephalus sanguineus larvae (treated filter paper); type: in vivo; conditions: test concentration of 100 ppm; larvae (L1) on treated filter paper; assessed 24 hours after application in comparison with untreated control

Row | SMILES | control of Ctenocephalides felis [1] | contact control of Rhipicephalus sanguineus [2]
1 | N#Cc1nn(-c2c(Cl)cc(C(F)(F)F)cc2Cl)c(N2CCNCC2)c1S(=O)(=O)C(F)(F)F [Compound 01-03, 1-[2,6-dichloro-4-(trifluoromethyl)phenyl]-5-piperazin-1-yl-4-[(trifluoromethyl)sulfonyl]-1H-pyrazole-3-carbonitrile] | at least 80% | at least 70%
2 | N#Cc1nn(-c2c(Cl)cc(C(F)(F)F)cc2Cl)c(N2CCN(Cc3ccccc3)CC2)c1S(=O)(=O)C(F)(F)F [Compound 01-45, 1-[2,6-dichloro-4-(trifluoromethyl)phenyl]-5-(4-benzylpiperazin-1-yl)-4-[(trifluoromethyl)sulfonyl]-1H-pyrazole-3-carbonitrile] | at least 80% | 
